Experimental data: paper PMC11348067

The chains behind the UniProt entries cited, without tags or fusion partners. Residues count along the entry.
UniProt P01579, 24-161: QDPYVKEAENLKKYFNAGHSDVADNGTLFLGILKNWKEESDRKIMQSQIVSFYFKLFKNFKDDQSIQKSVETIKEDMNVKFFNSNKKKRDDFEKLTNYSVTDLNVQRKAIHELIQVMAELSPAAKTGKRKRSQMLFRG
UniProt P02787, 20-698: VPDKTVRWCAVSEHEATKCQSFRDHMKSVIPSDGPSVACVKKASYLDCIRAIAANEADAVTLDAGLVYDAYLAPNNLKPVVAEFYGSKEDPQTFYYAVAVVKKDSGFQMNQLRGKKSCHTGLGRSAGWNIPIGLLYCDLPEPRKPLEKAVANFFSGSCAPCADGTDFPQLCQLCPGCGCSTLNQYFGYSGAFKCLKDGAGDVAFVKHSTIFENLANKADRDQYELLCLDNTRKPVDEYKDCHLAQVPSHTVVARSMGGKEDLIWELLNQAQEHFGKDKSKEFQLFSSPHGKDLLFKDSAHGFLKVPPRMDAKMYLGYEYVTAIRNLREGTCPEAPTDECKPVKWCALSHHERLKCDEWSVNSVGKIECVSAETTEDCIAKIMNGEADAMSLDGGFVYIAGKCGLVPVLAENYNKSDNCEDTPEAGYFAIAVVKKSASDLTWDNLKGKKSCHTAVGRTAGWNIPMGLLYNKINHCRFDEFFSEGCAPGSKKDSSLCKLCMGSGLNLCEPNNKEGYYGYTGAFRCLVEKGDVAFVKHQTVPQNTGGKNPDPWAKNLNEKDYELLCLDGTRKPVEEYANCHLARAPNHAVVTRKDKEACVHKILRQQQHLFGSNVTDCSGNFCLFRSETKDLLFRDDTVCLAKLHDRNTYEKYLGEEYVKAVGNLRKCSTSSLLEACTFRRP

Assays:
[1] = system: glypican 3 (GPC 3); assay: RCA inhibition fluorescence assay; details: 10 fg/mL protein, signal comparable to blank, aptamer/padlock annealed in water with 80 mM NaCl (2 uL of 800 mM in 20 uL), then 40 uL protein added, 30 min, pH and binding temperature not stated, ligation 37 C 1 h, commercial protein
[2] = target: human serum albumin (HSA) (human) (UniProt P02768); assay: RCA inhibition fluorescence assay; details: 10 fg/mL protein, signal comparable to blank, aptamer/padlock annealed in water with 80 mM NaCl (2 uL of 800 mM in 20 uL), then 40 uL protein added, 30 min, pH and binding temperature not stated, ligation 37 C 1 h, commercial protein
[3] = target: interferon-gamma (IFN-γ) (UniProt P01579); assay: RCA inhibition fluorescence assay; details: 10 fg/mL protein, signal comparable to blank, aptamer/padlock annealed in water with 80 mM NaCl (2 uL of 800 mM in 20 uL), then 40 uL protein added, 30 min, pH and binding temperature not stated, ligation 37 C 1 h, commercial protein
[4] = target: transferrin (UniProt P02787); assay: RCA inhibition fluorescence assay; details: 10 fg/mL protein, signal comparable to blank, aptamer/padlock annealed in water with 80 mM NaCl (2 uL of 800 mM in 20 uL), then 40 uL protein added, 30 min, pH and binding temperature not stated, ligation 37 C 1 h, commercial protein
[5] = target: PD-L1 (human) (UniProt Q9NZQ7); assay: not stated (cited); details: aptamer/padlock annealed in water with 80 mM NaCl (2 uL of 800 mM in 20 uL), then 40 uL protein added, 30 min; pH and binding temperature not stated; ligation 37 C 1 h; commercial protein; single-stranded DNA
[6] = system: Mucin 1 (human); assay: inhibition of RCA by aptamer capture (agarose gel, QD fluorescence); details: 10 ag/mL-100 fg/mL protein in gel; 5'-phosphate on Padlock-2; aptamer/padlock annealed in water with 80 mM NaCl (2 uL of 800 mM in 20 uL), then 40 uL protein added, 30 min; pH and binding temperature not stated; ligation 37 C 1 h; commercial protein

## ACGGGCCACATCAACTCATTGATAGACAATGCGTCCACTGCCCGT / TGTCTATCAATGATATGGGGGGTCGCATGGGGGGTACAGATGGGGGGTCGCATGGGGGGCCTAACGGGCAGTGGACGCAT [PD-L1 aptamer + Padlock-1 (dsDNA-1)]
[1]; 5'-phosphate on Padlock-1
  binding result: no binding
[2]; 5'-phosphate on Padlock-1
  binding result: no binding
[3]; 5'-phosphate on Padlock-1
  binding result: no binding
[4]; 5'-phosphate on Padlock-1
  binding result: no binding

## ACGGGCCACATCAACTCATTGATAGACAATGCGTCCACTGCCCGT [PD-L1 aptamer]
[5]
  Kd: 4.7 nM

## GCAGTTGATCCTTTGGATACCCTGGAGTGA / CCAAAGGATCCTAAAAAAATCGCATAAAAAATACAGCTAAAAAATCGCATAAAAAACCTATCACTCCAGGGTAT [Mucin 1 aptamer + Padlock-2 (dsDNA-2)]
[1]; 5'-phosphate on Padlock-2
  binding result: no binding
[2]; 5'-phosphate on Padlock-2
  binding result: no binding
[3]; 5'-phosphate on Padlock-2
  binding result: no binding
[4]; 5'-phosphate on Padlock-2
  binding result: no binding
[6]
  binding result: binds

For some of these results: No signal at the amounts used counts as a negative. For some of these results: At least one verdict rests on a figure or table, not on a statement of the authors. For some of these results: The exact form of at least one protein or probe is not confirmed.
